Results from PubChem BioAssay AID2685 (National Center for Advancing Translational Sciences (NCATS), 2010).
This is one part of the list. Further columns of the screen follow, without active or inactive calls. Compounds called inactive in the main read-out are mostly missing here. The note in brackets gives the kind of curve behind each potency; many fits are weak.

Experiment: qHTS Assay for Lipid Storage Modulators in Drosophila S3 Cells;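 on cell number change: cells counted by Cell Tracker Red CMTPX staining in the red channel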
Details: BODIPY lipid droplet fluorescence, 18-24 h; for cell number change: measured here: cell count max response, cells fed with added oleic acid
Outline: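 Laser-scanning cytometry quantifies lipid droplet accumulation (500–530 nm total intensity; droplet/cell object ratio) in oleic acid-fed (400 uM added) Drosophila S3 cells treated with a concentration series. 20 uM Triacsin C defined 100% inhibition.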

[1] = measured here: lipid fluorescence (Fed channel) AC50, cells fed with added oleic acid
[2] = measured here: cell number channel AC50, cells fed with added oleic acid

| Structure (SMILES) | cell number change | AC50 [1] | AC50 [2] |
| --- | --- | --- | --- |
| COC(=O)c1ccccc1NC(=O)C1CCN(c2ncnc3c2nc2n3CCCCC2)CC1 | -16.2% | 0.58 µM [rising, single point] |  |
| Cc1cc(C)c(C(=O)Cn2nc(C)c([N+](=O)[O-])c2C)cc1C | -0.366% | 6.51 µM [rising, partial curve, poor fit] |  |
| COc1ccc(Br)c(C(=O)Nc2cccc(Cl)c2Cl)c1 |  | 0.13 µM [falling, full curve, poor fit] |  |
| O=C(CSc1nnnn1Cc1ccccc1)Nc1ccc2c(c1)OCCO2 | 2.11% |  |  |
| CC1CC(C)CN(S(=O)(=O)N2CCCC(C(=O)NCCc3ccccc3)C2)C1 (centres undefined) | 21.1% |  |  |
| COCCN(C(=O)c1cc(Cl)nc2ccccc12)c1c(N)n(Cc2ccccc2)c(=O)[nH]c1=O | 4.89% |  | 0.0731 µM [rising, full curve, poor fit] |
| CN(CC(=O)Nc1cc(Cl)cc(Cl)c1)Cc1cccs1 | 24.4% |  | 0.517 µM [rising, full curve, poor fit] |
| Cc1ccc(/C=N/NC(=O)C2CCN(Cc3ccc(F)cc3Cl)CC2)o1 |  | 0.411 µM [falling, full curve, poor fit] | 3.66 µM [falling, partial curve, poor fit] |
| CCc1cc(C)cc(OCCOc2ccccc2/C=N/NC(C)=O)c1 | -22.3% |  |  |
| COCCNC(=O)C(c1ccccc1C)N(CCOC)C(=O)Cn1nnc2ccccc21 (centres undefined) | 64% | 5.17 µM [rising, partial curve] | 29.1 µM [rising, single point] |
| O=C(CCN1C(=O)[C@H]2CC=CC[C@H]2C1=O)NCc1nc(-c2ccc(Cl)cc2)no1 | 2.99% | 0.164 µM [rising, full curve, poor fit] |  |
| CC(CN1CCCCC1)OC(=O)c1ccc(Cl)cc1Cl (centres undefined) | -214% | 23.1 µM [falling, partial curve] | 23.1 µM [falling, partial curve] |
| CCN(CC)CCOC(=O)c1ccc(NC(=O)CCCN2C(=O)/C(=C/c3cccs3)SC2=S)cc1 | -29.2% |  |  |
| CC(=O)Nc1ccc2nc(-c3cccs3)[nH]c2c1 | 3.88% |  |  |
| COc1ccc(CC(=O)OCC(=O)NC(=O)NC2CCCC2)cc1 | -5.45% |  |  |
| Oc1ccc(N2CCN(c3nnnn3-c3ccccc3)CC2)cc1 | -13.7% | 0.58 µM [rising, partial curve, poor fit] | 0.82 µM [rising, full curve] |
| Cc1cc(NC(=O)CSc2nc3ccccc3cc2C#N)no1 | 47.4% |  | 3.66 µM [rising, full curve, poor fit] |
| O=C(Nc1nncs1)c1ccc(F)c(S(=O)(=O)N2CCCCC2)c1 | -10.5% | 29.1 µM [falling, single point] |  |
| O=C(CSc1nnc(NC(=O)c2ccc(S(=O)(=O)N3CCOCC3)cc2)s1)Nc1ccccc1C(F)(F)F | -4.18% | 0.58 µM [rising, single point] |  |
| C=CCN1C(=O)NC2(CCCCC2)C1=O | -17.8% | 9.2 µM [falling, partial curve] |  |

| Structure (SMILES) | cell number change | AC50 [1] | AC50 [2] |
| --- | --- | --- | --- |
| O=C(O)c1ccc(N2CCN(Cc3ccc4c(c3)OCO4)CC2)c([N+](=O)[O-])c1 | 20.9% | 14.6 µM [rising, partial curve, poor fit] |  |
| CCOc1ccc(NCCC(=O)c2ccc3c(c2)OCO3)cc1 | -11.2% |  |  |
| CCOc1ccccc1OCCCC(=O)NNC(=O)c1nn(C)c(=O)c2ccccc12 | -28.4% | 0.0517 µM [rising, full curve, poor fit] |  |
| COCCCNC(=O)CCCn1c(=O)[nH]c2ccccc2c1=O | 5.21% | 0.731 µM [falling, full curve, poor fit] |  |
| COc1ccccc1NC(=O)COc1ccc(C(=O)NCc2ccccc2)cc1OC | -32.9% | 29.1 µM [falling, single point] | 25.9 µM [falling, single point] |
| C=CCn1c(N)c(C(=O)OCC(C)C)c2nc3ccccc3nc21 | 6.63% | 0.326 µM [rising, full curve, poor fit] |  |
| Cn1cnnc1SC(C(=O)Nc1cccc(C(F)(F)F)c1)c1ccccc1 (centres undefined) | 60.2% |  | 0.58 µM [rising, full curve] |
| CCCN(Cc1nnc(-c2cccs2)o1)C(=O)CN1C(=O)NC2(CCCCC2)C1=O | 1.5% |  |  |
| CCOc1cc(C(=S)N2CCOCC2)ccc1OC(=O)c1cc(OC)c(OC)c(OC)c1 | -32.3% |  | 16.4 µM [falling, partial curve] |
| Cn1c(SCC(=O)Nc2ccc3c(c2)OCCO3)nnc1-c1ccccn1 | 15.3% | 0.231 µM [rising, full curve, poor fit] |  |
| COc1ccc(-n2ncc3c(NC(C)C)ncnc32)cc1 | 7.54% |  |  |
| O=C1COc2ccc(S(=O)(=O)NCc3ccccc3)cc2N1 | -4.35% | 16.4 µM [falling, partial curve, poor fit] |  |
| COc1ccc(S(=O)(=O)Nc2cccc(-c3ccc(N4CCCCCC4)nn3)c2)cc1OC |  |  | 5.17 µM [rising, single point] |
| CC(C)NC(=O)COC(=O)/C=C/c1ccco1 | -10% | 29.1 µM [falling, single point] | 0.58 µM [falling, full curve, poor fit] |
| CCCS(=O)(=O)c1nc(S(=O)(=O)c2ccc(C)cc2)c(NCCN2CCOCC2)s1 | -3.45% |  |  |
| COc1cccc(NC(=O)C(NCC2CCCCC2)c2ccccc2)c1 (centres undefined) | 94.5% | 23.1 µM [rising, single point] | 23.1 µM [rising, single point] |
| O=C(CSc1nnc(-c2cccs2)n1Cc1ccccc1)NCc1ccc2c(c1)OCO2 |  | 16.4 µM [rising, partial curve] | 3.66 µM [rising, partial curve] |
| O=C(COc1ccccc1[N+](=O)[O-])Nc1ccc(NC(=O)c2cc3ccccc3o2)cc1 | -16% | 6.51 µM [falling, single point] | 6.51 µM [falling, single point] |
| CCOC(=O)c1cc(-c2ccc(OC)cc2OC)nn1-c1ccc(C(=O)O)cc1 | -22.5% | 6.51 µM [falling, single point] |  |
| COC(=O)c1c(NC(=O)CCl)sc(C(=O)N2CCOCC2)c1C |  | 29.1 µM [falling, single point] |  |

Arranged by length of the SMILES (ascending): part of the list above

| Structure (SMILES) | cell number change | AC50 [1] | AC50 [2] |
| --- | --- | --- | --- |
| COCCCNC(=O)CCCn1c(=O)[nH]c2ccccc2c1=O | 5.21% | 0.731 µM [falling, full curve, poor fit] |  |
| COc1cccc(NC(=O)C(NCC2CCCCC2)c2ccccc2)c1 (centres undefined) | 94.5% | 23.1 µM [rising, single point] | 23.1 µM [rising, single point] |
| C=CCn1c(N)c(C(=O)OCC(C)C)c2nc3ccccc3nc21 | 6.63% | 0.326 µM [rising, full curve, poor fit] |  |
| CCOC(=O)c1cc(-c2ccc(OC)cc2OC)nn1-c1ccc(C(=O)O)cc1 | -22.5% | 6.51 µM [falling, single point] |  |
| O=C(O)c1ccc(N2CCN(Cc3ccc4c(c3)OCO4)CC2)c([N+](=O)[O-])c1 | 20.9% | 14.6 µM [rising, partial curve, poor fit] |  |

Remaining list, next part

| Structure (SMILES) | cell number change | AC50 [1] | AC50 [2] |
| --- | --- | --- | --- |
| Cc1ccc(S(=O)(=O)Nn2c(O)c(C=C3N=c4ccccc4=N3)sc2=S)cc1 | -49.3% |  | 29.1 µM [falling, single point] |
| O=[N+]([O-])c1ccc(NC2CCCC2)cc1 | 16.5% | 0.206 µM [falling, partial curve, poor fit] |  |
| Cn1c[n+](C)cc1/C=N/O | 11.8% | 9.2 µM [rising, partial curve, poor fit] |  |
| COc1ccc(CCN2C(=NC(=O)CCC(=O)O)SC3CS(=O)(=O)CC32)cc1 (centres undefined) | 8.16% | 29.1 µM [rising, single point] |  |
| COc1cccc(-c2cc3c(-n4cccc4)ncnc3o2)c1 | -10% | 3.26 µM [falling, single point] |  |
| O=C(Cc1ccc([N+](=O)[O-])cc1)Nc1ccc(C(=O)N2CCOCC2)cc1 | 37.9% | 13 µM [rising, partial curve, poor fit] | 29.1 µM [rising, partial curve] |
| Cc1cccc(NC(=O)CCN2CCC(C(N)=O)CC2)c1 | 5.77% |  |  |
| Cc1ccc(C(=O)OC(C)C(=O)NC2CCCCC2)cc1S(=O)(=O)N1CCCCC1 (centres undefined) | 1.27% | 6.51 µM [falling, single point] | 6.51 µM [falling, single point] |
| COc1ccc(OCCC(=O)OCc2c(C)noc2C)cc1 | 5.69% | 1.64 µM [falling, partial curve] |  |
| O=C(Cc1coc(-c2ccc(F)cc2)n1)NCc1ccccc1 | 6.56% | 6.51 µM [falling, partial curve, poor fit] |  |
| CC(C)(C)c1ccc(OCCC(=O)OCC(=O)NC(=O)NC2CCCC2)cc1 | -1.5% | 29.1 µM [falling, single point] |  |
| CN1CCN(C2=CC3=CC(=C(C#N)C#N)CCC3CC2)CC1 (centres undefined) | -98.1% | 0.651 µM [falling, full curve] | 1.84 µM [falling, partial curve] |
| O=C(CCc1nc2ccccc2[nH]1)Nc1ccccc1F | -34.7% | 18.4 µM [falling, partial curve, poor fit] | 16.4 µM [falling, partial curve, poor fit] |
| CCc1ccc(NC(=O)C2CCCN(S(=O)(=O)c3ccc4[nH]c(=O)ccc4c3)C2)cc1 (centres undefined) | 34% |  | 0.731 µM [falling, partial curve] |
| Cc1cccc(OC(C)C(=O)N2CCc3ccccc3C2)c1 (centres undefined) | 6.04% | 9.2 µM [rising, partial curve] |  |
| O=C1NC(Cc2ccccc2)c2nc3ccc(Cl)cc3c(=O)n2-c2ccc(Cl)cc21 (centres undefined) | 4.67% |  |  |
| Cc1cccc[n+]1CC(=O)Nc1ccccc1 | 14.9% |  |  |
| CCOP(=O)(OCC)C(NC(=O)Nc1ccc(Cl)c(Cl)c1)c1ccccc1 (centres undefined) | 12.5% | 0.651 µM [falling, single point] |  |
| Cc1cccc(Oc2coc3cc(O)ccc3c2=O)c1 |  | 6.51 µM [falling, single point] |  |
| O=C(NCc1ccc(Cl)cc1)c1cc(=O)nc2sc(-c3ccccc3)nn12 | 13.6% | 0.0651 µM [rising, full curve, poor fit] |  |
